Measurements published in the supplement of paper PMC12819154, “High-throughput peptide-centric local stability assay extends protein–ligand identification to membrane proteins, tissues and bacteria” (Nature Structural & Molecular Biology, 2025).
The list shows a part of the results. Small differences around the control level are noise.

Sequences of proteins named here, by UniProt entry; tags and fusion partners are left off. A change or cut given only in a name is not applied to a line headed by its entry.
UniProt A6NIE6: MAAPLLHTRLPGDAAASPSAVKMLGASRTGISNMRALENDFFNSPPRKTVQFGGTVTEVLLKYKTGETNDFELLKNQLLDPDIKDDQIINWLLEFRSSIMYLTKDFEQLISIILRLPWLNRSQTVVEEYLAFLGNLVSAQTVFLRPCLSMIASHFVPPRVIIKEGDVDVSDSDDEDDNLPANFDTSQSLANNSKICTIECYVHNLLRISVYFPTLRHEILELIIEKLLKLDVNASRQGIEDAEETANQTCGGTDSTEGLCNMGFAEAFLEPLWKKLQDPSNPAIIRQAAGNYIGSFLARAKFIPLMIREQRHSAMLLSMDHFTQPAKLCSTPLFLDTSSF
UniProt O15247: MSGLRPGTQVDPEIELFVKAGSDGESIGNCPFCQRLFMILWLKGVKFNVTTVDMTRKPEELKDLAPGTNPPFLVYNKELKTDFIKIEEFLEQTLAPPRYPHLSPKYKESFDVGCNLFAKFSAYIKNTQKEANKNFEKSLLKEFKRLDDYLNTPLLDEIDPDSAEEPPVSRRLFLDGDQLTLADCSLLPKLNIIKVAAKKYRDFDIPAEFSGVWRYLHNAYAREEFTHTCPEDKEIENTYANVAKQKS
UniProt O15228: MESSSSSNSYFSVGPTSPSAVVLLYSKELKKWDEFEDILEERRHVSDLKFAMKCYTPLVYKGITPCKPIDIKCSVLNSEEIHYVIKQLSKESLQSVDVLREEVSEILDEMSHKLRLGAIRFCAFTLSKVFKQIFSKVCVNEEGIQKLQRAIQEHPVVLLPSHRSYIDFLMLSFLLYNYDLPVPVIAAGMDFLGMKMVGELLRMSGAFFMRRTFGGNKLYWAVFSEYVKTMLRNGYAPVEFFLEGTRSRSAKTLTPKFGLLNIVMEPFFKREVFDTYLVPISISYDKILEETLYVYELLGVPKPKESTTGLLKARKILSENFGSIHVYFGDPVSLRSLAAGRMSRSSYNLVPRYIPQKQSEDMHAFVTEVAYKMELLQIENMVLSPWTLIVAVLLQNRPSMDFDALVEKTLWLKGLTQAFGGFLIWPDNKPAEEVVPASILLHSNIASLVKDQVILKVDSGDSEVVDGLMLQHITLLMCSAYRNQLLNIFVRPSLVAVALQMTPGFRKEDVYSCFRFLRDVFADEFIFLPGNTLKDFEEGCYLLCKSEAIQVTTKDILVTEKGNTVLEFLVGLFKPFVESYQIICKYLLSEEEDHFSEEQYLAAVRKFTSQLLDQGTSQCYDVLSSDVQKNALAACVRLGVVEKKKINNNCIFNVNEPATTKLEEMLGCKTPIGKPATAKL
UniProt O14730: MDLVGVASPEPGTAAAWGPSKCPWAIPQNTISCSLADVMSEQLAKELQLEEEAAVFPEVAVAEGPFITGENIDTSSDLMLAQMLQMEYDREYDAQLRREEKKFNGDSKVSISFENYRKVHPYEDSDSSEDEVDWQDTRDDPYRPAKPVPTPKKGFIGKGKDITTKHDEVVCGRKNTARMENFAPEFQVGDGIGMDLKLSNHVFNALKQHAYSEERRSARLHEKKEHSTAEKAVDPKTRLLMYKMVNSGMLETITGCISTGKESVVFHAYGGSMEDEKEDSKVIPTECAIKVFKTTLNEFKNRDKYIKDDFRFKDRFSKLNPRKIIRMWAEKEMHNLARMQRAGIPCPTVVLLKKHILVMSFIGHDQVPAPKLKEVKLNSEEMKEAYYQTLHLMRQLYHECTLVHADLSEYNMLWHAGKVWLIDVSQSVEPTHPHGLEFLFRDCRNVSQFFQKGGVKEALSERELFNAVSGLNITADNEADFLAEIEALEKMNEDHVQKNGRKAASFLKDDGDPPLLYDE
UniProt O15062: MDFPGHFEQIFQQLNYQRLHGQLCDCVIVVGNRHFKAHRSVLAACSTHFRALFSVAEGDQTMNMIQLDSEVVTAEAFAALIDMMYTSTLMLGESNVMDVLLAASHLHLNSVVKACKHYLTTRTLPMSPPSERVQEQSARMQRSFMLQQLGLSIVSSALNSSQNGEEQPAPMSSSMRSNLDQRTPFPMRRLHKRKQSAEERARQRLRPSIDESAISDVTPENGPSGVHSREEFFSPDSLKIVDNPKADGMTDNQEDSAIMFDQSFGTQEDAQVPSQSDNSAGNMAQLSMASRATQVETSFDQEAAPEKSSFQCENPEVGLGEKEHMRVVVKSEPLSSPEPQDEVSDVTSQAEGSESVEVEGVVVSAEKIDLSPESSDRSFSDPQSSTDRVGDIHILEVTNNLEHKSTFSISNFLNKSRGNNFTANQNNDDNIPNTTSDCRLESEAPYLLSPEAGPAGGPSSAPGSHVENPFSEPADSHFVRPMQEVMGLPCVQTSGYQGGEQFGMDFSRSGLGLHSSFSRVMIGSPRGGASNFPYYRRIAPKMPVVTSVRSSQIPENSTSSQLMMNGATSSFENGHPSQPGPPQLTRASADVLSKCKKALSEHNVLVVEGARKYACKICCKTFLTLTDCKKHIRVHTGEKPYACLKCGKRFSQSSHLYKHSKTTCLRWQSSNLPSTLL
UniProt O15355: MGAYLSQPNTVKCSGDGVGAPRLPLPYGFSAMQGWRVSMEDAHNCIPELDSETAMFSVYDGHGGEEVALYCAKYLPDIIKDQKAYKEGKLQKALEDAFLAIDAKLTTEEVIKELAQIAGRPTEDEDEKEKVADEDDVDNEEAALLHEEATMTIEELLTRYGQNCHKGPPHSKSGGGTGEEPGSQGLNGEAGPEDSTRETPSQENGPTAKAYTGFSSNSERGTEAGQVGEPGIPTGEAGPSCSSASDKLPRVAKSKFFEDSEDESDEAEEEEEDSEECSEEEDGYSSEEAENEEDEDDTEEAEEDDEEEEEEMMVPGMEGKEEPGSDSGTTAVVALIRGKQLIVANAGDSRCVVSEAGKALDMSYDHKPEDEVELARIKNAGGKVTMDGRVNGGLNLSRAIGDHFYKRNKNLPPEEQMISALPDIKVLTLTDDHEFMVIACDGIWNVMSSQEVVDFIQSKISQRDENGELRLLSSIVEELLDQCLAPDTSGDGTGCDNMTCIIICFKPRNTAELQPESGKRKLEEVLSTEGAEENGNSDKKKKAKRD
UniProt O14604: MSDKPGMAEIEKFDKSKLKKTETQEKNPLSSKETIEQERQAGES
UniProt O14646: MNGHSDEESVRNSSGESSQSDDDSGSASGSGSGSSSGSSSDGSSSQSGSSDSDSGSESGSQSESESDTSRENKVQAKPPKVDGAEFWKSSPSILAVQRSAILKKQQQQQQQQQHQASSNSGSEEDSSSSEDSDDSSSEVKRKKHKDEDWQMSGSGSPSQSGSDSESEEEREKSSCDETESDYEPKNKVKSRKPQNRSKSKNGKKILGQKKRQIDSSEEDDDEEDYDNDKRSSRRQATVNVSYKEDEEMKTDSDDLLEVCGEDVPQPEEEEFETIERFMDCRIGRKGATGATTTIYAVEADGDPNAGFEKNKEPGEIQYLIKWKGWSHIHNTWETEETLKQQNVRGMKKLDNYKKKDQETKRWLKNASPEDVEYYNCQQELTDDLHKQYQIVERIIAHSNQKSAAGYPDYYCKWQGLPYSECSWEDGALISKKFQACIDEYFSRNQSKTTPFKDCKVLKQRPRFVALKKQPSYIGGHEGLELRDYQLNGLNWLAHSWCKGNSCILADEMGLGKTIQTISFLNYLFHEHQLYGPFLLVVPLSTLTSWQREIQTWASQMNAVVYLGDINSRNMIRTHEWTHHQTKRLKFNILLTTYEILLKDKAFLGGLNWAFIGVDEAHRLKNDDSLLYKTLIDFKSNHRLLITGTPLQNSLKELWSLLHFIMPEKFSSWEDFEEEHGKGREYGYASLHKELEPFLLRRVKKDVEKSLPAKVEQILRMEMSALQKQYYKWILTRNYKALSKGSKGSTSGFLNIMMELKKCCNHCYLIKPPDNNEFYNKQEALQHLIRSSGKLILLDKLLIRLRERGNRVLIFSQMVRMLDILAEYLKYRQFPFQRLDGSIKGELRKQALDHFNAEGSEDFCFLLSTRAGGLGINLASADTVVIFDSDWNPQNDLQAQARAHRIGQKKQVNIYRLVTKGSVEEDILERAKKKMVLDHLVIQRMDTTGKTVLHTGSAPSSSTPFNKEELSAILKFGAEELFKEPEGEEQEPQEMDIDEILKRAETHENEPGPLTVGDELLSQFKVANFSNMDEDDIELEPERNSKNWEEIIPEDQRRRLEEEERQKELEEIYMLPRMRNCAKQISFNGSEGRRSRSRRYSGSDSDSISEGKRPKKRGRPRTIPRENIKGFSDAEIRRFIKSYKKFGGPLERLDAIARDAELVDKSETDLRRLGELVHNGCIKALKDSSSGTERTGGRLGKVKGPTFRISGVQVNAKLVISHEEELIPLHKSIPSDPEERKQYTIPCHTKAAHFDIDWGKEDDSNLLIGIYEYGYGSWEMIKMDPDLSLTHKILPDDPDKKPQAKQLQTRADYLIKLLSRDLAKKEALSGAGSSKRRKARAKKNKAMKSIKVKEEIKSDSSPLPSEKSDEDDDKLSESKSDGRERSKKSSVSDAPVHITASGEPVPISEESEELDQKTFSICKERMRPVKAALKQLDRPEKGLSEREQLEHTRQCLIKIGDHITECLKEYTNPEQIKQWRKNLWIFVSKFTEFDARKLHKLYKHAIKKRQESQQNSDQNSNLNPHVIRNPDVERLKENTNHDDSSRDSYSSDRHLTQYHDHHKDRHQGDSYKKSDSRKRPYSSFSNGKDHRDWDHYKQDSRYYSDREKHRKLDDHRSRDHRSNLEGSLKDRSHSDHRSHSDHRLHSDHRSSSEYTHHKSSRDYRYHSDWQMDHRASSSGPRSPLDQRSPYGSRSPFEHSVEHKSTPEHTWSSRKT
UniProt O14737: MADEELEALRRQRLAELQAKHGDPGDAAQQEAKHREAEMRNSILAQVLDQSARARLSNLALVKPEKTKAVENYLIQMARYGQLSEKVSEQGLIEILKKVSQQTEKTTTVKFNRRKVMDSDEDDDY
UniProt O15400: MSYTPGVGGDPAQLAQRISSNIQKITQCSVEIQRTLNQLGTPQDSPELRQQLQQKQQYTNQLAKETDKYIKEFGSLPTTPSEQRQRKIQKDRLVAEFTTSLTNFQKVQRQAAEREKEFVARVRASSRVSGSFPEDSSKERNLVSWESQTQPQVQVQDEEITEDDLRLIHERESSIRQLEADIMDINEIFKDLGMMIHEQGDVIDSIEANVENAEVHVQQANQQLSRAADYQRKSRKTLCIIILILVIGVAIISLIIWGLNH
UniProt O15067: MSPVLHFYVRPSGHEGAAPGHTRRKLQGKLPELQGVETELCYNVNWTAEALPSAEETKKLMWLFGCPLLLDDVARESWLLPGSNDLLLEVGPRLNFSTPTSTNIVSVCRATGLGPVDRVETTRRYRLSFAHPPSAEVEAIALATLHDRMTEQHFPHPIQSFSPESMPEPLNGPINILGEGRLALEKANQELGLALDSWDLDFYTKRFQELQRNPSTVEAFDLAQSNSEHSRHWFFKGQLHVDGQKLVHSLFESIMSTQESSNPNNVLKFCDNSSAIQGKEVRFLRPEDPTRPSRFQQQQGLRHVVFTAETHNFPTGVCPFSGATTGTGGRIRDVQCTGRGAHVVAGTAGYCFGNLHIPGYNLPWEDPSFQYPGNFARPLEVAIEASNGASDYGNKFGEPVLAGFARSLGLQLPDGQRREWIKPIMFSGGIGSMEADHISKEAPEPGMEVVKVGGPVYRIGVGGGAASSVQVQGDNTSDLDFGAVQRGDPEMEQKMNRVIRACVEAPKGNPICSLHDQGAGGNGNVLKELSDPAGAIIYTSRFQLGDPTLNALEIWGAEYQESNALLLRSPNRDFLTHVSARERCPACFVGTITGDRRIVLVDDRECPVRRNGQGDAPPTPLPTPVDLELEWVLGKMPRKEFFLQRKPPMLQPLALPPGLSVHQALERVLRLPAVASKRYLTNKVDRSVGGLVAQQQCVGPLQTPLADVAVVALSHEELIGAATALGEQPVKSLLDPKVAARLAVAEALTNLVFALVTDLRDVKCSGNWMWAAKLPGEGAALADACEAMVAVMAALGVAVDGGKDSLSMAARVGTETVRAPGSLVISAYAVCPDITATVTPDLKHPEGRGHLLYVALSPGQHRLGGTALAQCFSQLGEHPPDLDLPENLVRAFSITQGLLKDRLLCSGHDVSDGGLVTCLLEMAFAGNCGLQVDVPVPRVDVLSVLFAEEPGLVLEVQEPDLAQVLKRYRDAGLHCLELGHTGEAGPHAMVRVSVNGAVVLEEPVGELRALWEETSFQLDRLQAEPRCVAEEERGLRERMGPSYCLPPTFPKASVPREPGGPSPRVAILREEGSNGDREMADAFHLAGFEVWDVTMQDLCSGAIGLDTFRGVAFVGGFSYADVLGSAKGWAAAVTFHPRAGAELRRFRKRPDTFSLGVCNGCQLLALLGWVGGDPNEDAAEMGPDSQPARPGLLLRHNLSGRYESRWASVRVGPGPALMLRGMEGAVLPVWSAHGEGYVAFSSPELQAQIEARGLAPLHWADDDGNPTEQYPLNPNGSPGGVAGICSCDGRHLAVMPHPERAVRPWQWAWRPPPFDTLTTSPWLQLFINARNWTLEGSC

What follows are targets tested with CN[C@@H]1C[C@H]2O[C@@](C)([C@@H]1OC)n1c3ccccc3c3c4c(c5c6ccccc6n2c5c31)C(=O)NC4 [staurosporine] (assay: log2 fold change of tryptic peptide abundance, ligand vs vehicle (limited proteolysis) (log2 ratio); higher = more trypsin-susceptible (destabilized)). Details: ligand concentration: 20 uM; sample: K562 cleared lysate; digestion: 4 min, 22 C (HT-PELSA RT4min, Orbitrap Astral).
Target “UniProt A6NIE6 (peptide sequence: ALENDFFNSPPRK, peptide start residue: 36)” has a log2 fold change of 0.209. For “AXIN1 (peptide sequence: DAAPPGRLPQK, peptide start residue: 260) (UniProt O15169)”, the log2 fold change was 0.558. “CLIC2 (peptide sequence: YKESFDVGCNLFAK, peptide start residue: 106) (UniProt O15247)” was tested, and the log2 fold change was 0.271. Target “TRDMT1 (peptide sequence: VLELYSGVGGMHHALR, peptide start residue: 6) (UniProt O14717)” has a log2 fold change of 0.465. With “GNPAT (peptide sequence: CYTPLVYK, peptide start residue: 54) (UniProt O15228)” the log2 fold change was -0.383. Target “TRIM38 (peptide sequence: DYEAGLGLK, peptide start residue: 214) (UniProt O00635)” has a log2 fold change of -0.265. Target “UniProt O00442 (peptide sequence: GGIHTADTK, peptide start residue: 86)” has a log2 fold change of 0.355. “ARPC1B (peptide sequence: ERFQNLDKK, peptide start residue: 300) (UniProt O15143)” gave a log2 fold change of 0.259. In the case of “RIOK3 (peptide sequence: KHILVMSFIGHDQVPAPK, peptide start residue: 354) (UniProt O14730)”, the log2 fold change is reported as -0.101. “ZBTB5 (peptide sequence: EEFFSPDSLK, peptide start residue: 230) (UniProt O15062)” was tested, and the log2 fold change was 0.29. “ZSWIM8 (peptide sequence: RAHNDHPNNFSR, peptide start residue: 1681) (UniProt A7E2V4)” gave a log2 fold change of -0.503. For “UniProt B7ZW38 (peptide sequence: VFIGNLNTLVVK, peptide start residue: 18)”, the log2 fold change was -0.0571. With “STXBP3 (peptide sequence: QVVHLNLAEDCMNKFK, peptide start residue: 344) (UniProt O00186)” the log2 fold change was 0.468. With “UniProt O14602 (peptide sequence: AYGELPEHAK, peptide start residue: 105)” the log2 fold change was 0.13. “KIF2A (peptide sequence: NKPHTPFR, peptide start residue: 498) (UniProt O00139)” showed a log2 fold change of 0.28. “UNC13B (peptide sequence: NKPEIFEVIRDVFTVNK, peptide start residue: 561) (UniProt O14795)” showed a log2 fold change of 0.579. “PPM1G (peptide sequence: NLPPEEQMISALPDIK, peptide start residue: 410) (UniProt O15355)” was tested, and the log2 fold change was 0.209. With “UniProt O14604 (peptide sequence: LKKTETQEK, peptide start residue: 18)” the log2 fold change was 0.12. For “CHD1 (peptide sequence: IGDHITECLK, peptide start residue: 1454) (UniProt O14646)”, the log2 fold change was -0.542. Target “PDCD5 (peptide sequence: LSNLALVKPEKTK, peptide start residue: 56) (UniProt O14737)” has a log2 fold change of 0.61. For “STX7 (peptide sequence: ETDKYIKEFGSLPTTPSEQR, peptide start residue: 65) (UniProt O15400)”, the log2 fold change was -0.23. “TXNDC9 (peptide sequence: ESENVVCHFYR, peptide start residue: 88) (UniProt O14530)” showed a log2 fold change of -0.362. With “SURF4 (peptide sequence: SMFAGVPTMR, peptide start residue: 140) (UniProt O15260)” the log2 fold change was 0.0394. With “PFAS (peptide sequence: FLRPEDPTRPSR, peptide start residue: 283) (UniProt O15067)” the log2 fold change was 0.384. Work on “IFIT3 (peptide sequence: AIELFQR, peptide start residue: 260) (UniProt O14879)” yielded a log2 fold change of -0.111.
